This note sets out measurements from the RNAGym collection of RNA variant scans (doi:10.1126/science.aae0568).

Variants at the background level are over-represented here.

The labels stand for the following.
B1: tRNA (parent)
chain: GUUCCGUUGGCGUAAUGGUAACGCGUCUCCCUCCUAAGGAGAAGACUGCGGGUUCGAGUCCCGUACGGAACG

Variants of B1 are the subject of this data set. Description: yeast fitness relative to wild type (ratio to wild type); higher = fitter; tRNA-Arg(CCU), competitive growth, 37 C, YPD. In outline:
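Amplicons of the tRNA-Arg(CCU) gene were sequenced, 100-nucleotide paired-end, from the start population and from each end population of a pooled yeast competition. The competition, in six parallel replicates, lasted 24 hours in YPD at 37°C. Fitness relative to wild type was calculated from changes in genotype frequencies. Genotypes had to have ≥ 100 starting reads, and estimates < 0.5 were set to 0.5.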
Regarding G6C G17C U32G A40C U64A C66G, the yeast fitness was not above 0.5. For the variant U2A A21C C22U, the yeast fitness was not above 0.5.

Turning to C4A C61U A69G, the yeast fitness was not above 0.5. As for C4G A14C A20C A40G G44C U53C C55A, the figure is not above 0.5; as for A20G G25C, 0.985. Regarding U32C C61G A69C, the yeast fitness was not above 0.5. Turning to G50A G52A U59C C66U, the yeast fitness is not above 0.5. As for C4A U19G U35C U53C, the yeast fitness was not above 0.5.

For the variant G10C C30G C46U, the yeast fitness was not above 0.5. The figure for C5U A14G A21U A36U G48C C55U is 0.627; for A37C A42G G44A it is not above 0.5; for G9A C30U G38C it is not above 0.5. As for U7A C11U G17C C30G A37C G48C, the yeast fitness was not above 0.5. The figure for C31G U47C is 0.952. As for U13C C22A U47C C55G, the figure is not above 0.5; as for C4A G18A G25C C62U, not above 0.5; as for C11U A15U C34A G68A A70U, not above 0.5. As to U2A A15C C27U U28A A40U, the yeast fitness is not above 0.5.

For U8A C27U A40G, the yeast fitness was not above 0.5. The figure for A20G C34G A37C C66U is not above 0.5; for C29U C33G C60G it is not above 0.5; for A20G C22U C29A G68A A69C it is not above 0.5.

For the variant C5G G9A U47A G68C, the yeast fitness is not above 0.5. On to G6A C11A A40G G56C A70G, for which the yeast fitness is not above 0.5. With C29U C61U, the yeast fitness was determined as 0.706. As to C66A A70G, the yeast fitness is 0.764. For G17U A21G C55U, the yeast fitness was not above 0.5. The figure for C5G G9C C27U C30U G52C is not above 0.5.

As to C34A A45C C49A, the yeast fitness is not above 0.5. Consider U8C U26C G51C C62G A70C, for which the yeast fitness was not above 0.5. For C5A G17A C30U C49U, the yeast fitness was not above 0.5. Take C24U C34U C46U C62A: the yeast fitness was not above 0.5.

For C4A C29U C55U G63A, the yeast fitness was not above 0.5. As for C5U G23A C30U C33A G41C A42U, the yeast fitness was not above 0.5.

Turning to A42G A69C, the yeast fitness came to 0.95. Turning to A36G A40C G50A, the yeast fitness is not above 0.5.

In the case of C31U U53C, the yeast fitness worked out at 0.633.

For A20C C30G A45U G50C, the yeast fitness is not above 0.5. For C5U C27A A42U G48A, the yeast fitness was not above 0.5. With A14G C24A A36U C55A G63A, the yeast fitness is not above 0.5. Turning to G6A C34U U35A C66A, the yeast fitness is not above 0.5. For A15U C27G A36C, the yeast fitness is not above 0.5. For C29A A37G A42G, the yeast fitness was not above 0.5. As for A57G A69C, the yeast fitness amounted to 0.799.

Consider C4U A37U A45G, for which the yeast fitness is not above 0.5.

With A20G C34G A43U C61G, the yeast fitness is not above 0.5.

As for C4G C11G G58C C60A A70C, the yeast fitness was not above 0.5. Consider U16A C27G C49G U64A, for which the yeast fitness is not above 0.5. As for G12A U19G U35C A40U G58A G68A, the yeast fitness is not above 0.5.

Turning to G9C C31U A36G A43G, the yeast fitness was not above 0.5. For the variant U7G A21G C60U, the yeast fitness is not above 0.5. For the variant A14U A21C C29U U53C C55U A70G, the yeast fitness was not above 0.5.

For the variant C22G C55A C62U A65C, the yeast fitness is not above 0.5.

On to G52A G58A G63A, for which the yeast fitness is not above 0.5. As for C4G C11G C55G, the figure is not above 0.5.

Consider C24U U59A, for which the yeast fitness is 0.875.

On to U16A G39A A42G C55A C62A, for which the yeast fitness is not above 0.5.

Consider G17C A21G C27U C33G A42U A70C, for which the yeast fitness was not above 0.5. As for U8C U19A C33U, the figure is not above 0.5; as for C11U G51C, 0.718; as for C4A C24U A45U G56A, not above 0.5.

As to A14G C29G C31U U59C A70C, the yeast fitness is not above 0.5. As to G12A C30U U32G A36U G39C, the yeast fitness is not above 0.5. The figure for U2A A15U C30U A43U G56C is not above 0.5; for U13G A20C C27U A42C C49A it is not above 0.5; for C11A G25C C34G C66U it is not above 0.5. For C27G G63C, the yeast fitness was 0.582. As for C24G C55U, the figure is not above 0.5; as for G6C A20U C30G C66U, not above 0.5. As to G9C C27A G51C, the yeast fitness was not above 0.5.

As to A20G C31G C60G, the yeast fitness was not above 0.5. As for C29A G44C, the figure is 0.778. As to C4A C30G G52A, the yeast fitness is not above 0.5. Consider C24U G51C U54A A69U, for which the yeast fitness was not above 0.5. Regarding U19C A20U C55U C61G, the yeast fitness is not above 0.5. Regarding U7A U26C A40G A43U C49A G68C, the yeast fitness is not above 0.5.

U8C C11U C24G G63C G67A: the yeast fitness is not above 0.5.

For U32A C34A U53C U64A, the yeast fitness was not above 0.5. As for C34G U35A A57U, the yeast fitness was not above 0.5. As for C5U C29G U53G, the figure is not above 0.5; as for U2G U54G, not above 0.5. Turning to A14G C27A A37C G44A A65G C66U, the yeast fitness was not above 0.5.

On to C11U C29U G39A, for which the yeast fitness came to 0.619. Take G9C C24G C33G U35A G48C A69C: the yeast fitness was not above 0.5.

Consider A15U U16C G23C, for which the yeast fitness is not above 0.5. In the case of C5A C34A A40G C66A, the yeast fitness is not above 0.5. As for U3C U8C G12A C29G C34U A36C C61A, the figure is not above 0.5. As for U16G U19G C29G G50C C66U, the yeast fitness was not above 0.5. The figure for A45C G51C U64C is not above 0.5; for C4A C34A A43C C46U it is not above 0.5; for G6A C22G A45C G52C A57U A69C it is not above 0.5. Consider C4A A14G C24U U32G A42U A43G C66U, for which the yeast fitness was not above 0.5. As for G12C A36C A37U, the figure is not above 0.5; as for G9A G63U U64G, not above 0.5. Regarding G51A G63U C66A, the yeast fitness is not above 0.5.

Consider U19C G38A C55U C61G, for which the yeast fitness is not above 0.5. On to U16C U26A G38C G56A, for which the yeast fitness was not above 0.5.

As to C4U U28C C49G A70G, the yeast fitness was not above 0.5.

Turning to C30A C31U U32C A45C C55G, the yeast fitness is not above 0.5. On to G39A G51C C62A A70U, for which the yeast fitness is not above 0.5.

Take U3G U16C C34A: the yeast fitness is not above 0.5. Take C29G C30U U32A A42G: the yeast fitness is not above 0.5.

Take C5U C27G C33G A42C: the yeast fitness was not above 0.5.

Regarding G6C C29G C49A, the yeast fitness was not above 0.5. Consider G39C A42C C62U A69C, for which the yeast fitness is not above 0.5. As for C4A G12A, the yeast fitness amounted to 0.666. With C11G C30A U47G U53C G67C, the yeast fitness was not above 0.5. With C31U A36U A43C C55G G68A, the yeast fitness was not above 0.5. As for G23A A42G C61U A65G, the figure is not above 0.5; as for G12C U16A C49G G67C, not above 0.5; as for C4U C11G G18A G23C U47G G50A C61U, not above 0.5. For the variant C24G C49U C60U C61A, the yeast fitness is not above 0.5. With U19C G50A U53A C61U, the yeast fitness was not above 0.5.

With A43U U47C C55A, the yeast fitness is not above 0.5.

With G18C A40G, the yeast fitness amounted to 0.64.

As to C11G A15U C22U A42G G68C, the yeast fitness was not above 0.5. Regarding C5U A21U C30G G56A C66A, the yeast fitness is not above 0.5.

Turning to C5U G18A A40U U47C, the yeast fitness stood at 0.501. As for U3C A45U C62G, the figure is not above 0.5; as for A14U C30A G67A, not above 0.5; as for G12A C49U C60G, not above 0.5. With C24G G63A A65G G67A, the yeast fitness was not above 0.5. In the case of C22U A36C C60G, the yeast fitness is not above 0.5. In the case of U8C C22G C27U C49U U64C, the yeast fitness was not above 0.5. As to U26A C34A, the yeast fitness was found to be 0.592. For U13C A14G A42C C62G A70U, the yeast fitness is not above 0.5.

For the variant U7G C62G, the yeast fitness stood at 0.603.

Turning to C4U U8G G12A C55U, the yeast fitness is not above 0.5. As to U3C G39C C66U, the yeast fitness is not above 0.5. Consider G23A C33G A37G, for which the yeast fitness is not above 0.5.

As to A20C A21U C31U A70G, the yeast fitness was not above 0.5.

In the case of G25C C27G G58A U64A A65U, the yeast fitness was not above 0.5. Take C5A G17C G18C G58A U59G: the yeast fitness is 0.535. Turning to C11A A45U U54C U64A, the yeast fitness is not above 0.5. As for U35A G41C G52A, the yeast fitness is not above 0.5.

For A21C A42U G56C, the yeast fitness was not above 0.5. In the case of U7A A36G G41C U54A, the yeast fitness was not above 0.5. Take C5U A42G A45U C60G: the yeast fitness is not above 0.5. On to C30U A45U A69G, for which the yeast fitness came to 0.566. Turning to A14C A69G, the yeast fitness was 0.692. With A20G U32G A43C A45U C61U A70G, the yeast fitness was not above 0.5. On to C5G C11G A14U A15U C61U G68C, for which the yeast fitness is not above 0.5. On to U26C C33G A45G, for which the yeast fitness was not above 0.5. As for U2G C5G C11G U26A A43G A69C, the figure is not above 0.5; as for U7A A20C C29U U32C C33G, not above 0.5; as for C5U U8A G18C A37U G56C C61U, not above 0.5. As for U2C G10A U13C A21U, the yeast fitness is not above 0.5. For the variant U2A U3C C24G C33G C66U A70U, the yeast fitness was not above 0.5.

With U13G C27U G44A A57U, the yeast fitness was not above 0.5. Turning to C5G U19C A21C G39A, the yeast fitness is not above 0.5.

Regarding G12A A45G U47C U59A C66U, the yeast fitness was not above 0.5. The figure for A15U A21C is 0.611. As for C4G A14U G23A, the yeast fitness is not above 0.5. For C5U C22G C34A A36U G48A G52C C60A, the yeast fitness is not above 0.5. On to G10A C11G C31G A43C, for which the yeast fitness is not above 0.5.

C30U U53G A69U: the yeast fitness is not above 0.5. G9A G10A C31G G52A A65C: the yeast fitness was not above 0.5. G6C G52C: the yeast fitness was found to be 0.653.

Take U2G C4A G17A A20U C24U: the yeast fitness is not above 0.5. U8C C11U C27U C31A U35C C55G C66U A70C: the yeast fitness is not above 0.5. Turning to A15C A20G C22A G23U G38C C49U, the yeast fitness was not above 0.5. On to U2C U8C C11G C46A A70C, for which the yeast fitness is not above 0.5. Consider A14C C30A A37C G39A, for which the yeast fitness was not above 0.5. Take C29G G50C C66A: the yeast fitness was 0.518. The figure for G10C A14C C27A C29G A57C A65U is not above 0.5; for C24G G25C A40C A42U U47A C61G C66G it is 0.509. On to C4G C34G A40G G56A, for which the yeast fitness is not above 0.5.
